Counter-ions that a name gives are not always drawn. ± gives the standard deviation of the averaged measurements. The list shows a part of the results. Single values are uncertain, as repeats are few or missing.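 The assay uses a mixed pool of 41 HAP1 clones in which 61 cancer-associated proteins bear intron-inserted fluorescent tags, and clones are distinguished by image pattern. Results are compared against DMSO-treated control wells, and the BRD4 degrader dBET6 is the positive control.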

Chains of the proteins cited; added tags and fusions are not shown.
UniProt O14980, whole entry: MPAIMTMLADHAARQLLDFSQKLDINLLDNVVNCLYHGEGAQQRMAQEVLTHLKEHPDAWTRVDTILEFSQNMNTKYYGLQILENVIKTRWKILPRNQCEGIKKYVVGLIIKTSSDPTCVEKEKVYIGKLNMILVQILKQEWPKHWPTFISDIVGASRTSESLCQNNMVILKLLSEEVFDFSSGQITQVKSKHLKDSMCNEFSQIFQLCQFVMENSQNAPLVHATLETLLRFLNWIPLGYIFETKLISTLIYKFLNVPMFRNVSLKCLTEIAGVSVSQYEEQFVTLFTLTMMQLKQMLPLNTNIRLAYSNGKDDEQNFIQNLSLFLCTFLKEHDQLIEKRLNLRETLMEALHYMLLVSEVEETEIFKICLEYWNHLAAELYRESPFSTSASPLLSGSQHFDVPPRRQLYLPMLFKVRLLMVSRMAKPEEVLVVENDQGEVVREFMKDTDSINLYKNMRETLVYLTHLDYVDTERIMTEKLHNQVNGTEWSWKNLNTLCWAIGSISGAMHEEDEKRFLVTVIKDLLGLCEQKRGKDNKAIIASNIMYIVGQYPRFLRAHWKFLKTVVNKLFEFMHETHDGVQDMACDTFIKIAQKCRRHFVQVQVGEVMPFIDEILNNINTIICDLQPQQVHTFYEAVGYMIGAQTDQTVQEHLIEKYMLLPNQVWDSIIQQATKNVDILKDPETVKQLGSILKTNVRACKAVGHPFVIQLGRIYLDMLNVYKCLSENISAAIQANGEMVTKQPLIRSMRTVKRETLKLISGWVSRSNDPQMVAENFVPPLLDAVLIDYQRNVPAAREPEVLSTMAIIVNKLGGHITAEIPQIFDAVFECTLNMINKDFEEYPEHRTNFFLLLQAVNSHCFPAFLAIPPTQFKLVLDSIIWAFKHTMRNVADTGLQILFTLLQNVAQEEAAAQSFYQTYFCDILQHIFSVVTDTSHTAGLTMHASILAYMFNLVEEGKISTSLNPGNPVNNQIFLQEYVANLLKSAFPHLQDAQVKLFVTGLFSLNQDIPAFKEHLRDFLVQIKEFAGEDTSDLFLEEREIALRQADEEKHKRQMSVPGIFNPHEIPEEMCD

The assay addresses XPO1 (intron 15 mScarlet tag, HAP1) (UniProt O14980). In words: XPO1 fluorescence intensity change vs DMSO (log2 fold change); higher = more XPO1 protein. To be noted: 6 h.
On to `CN(C)C(=N)NC(=N)N` [Metformin] (10 µM), for which the “XPO1 fluorescence intensity change (log2)” value was -0.0459.
As for `N=C(N)NCC1COC2(CCCCC2)O1` (stereo not drawn) [Guanadrel] (10 µM), the “XPO1 fluorescence intensity change (log2)” value was determined as 0.0513.
The value for `C/C=C1\NC(=O)[C@H]2CSSCC/C=C/[C@H](CC(=O)N[C@H](C(C)C)C(=O)N2)OC(=O)[C@H](C(C)C)NC1=O` [Romidepsin] (10 µM) was 0.0689 ± 0.07; that for `C[C@]12CCC(=O)C=C1C=C[C@@H]1[C@@H]2CC[C@@]2(C)[C@H]1CC[C@@]21CCC(=O)O1` [Canrenone] (9.99944 µM) was 0.00941; that for `C=C(c1ccc(C(=O)O)cc1)c1cc2c(cc1C)C(C)(C)CCC2(C)C` [Bexarotene] (20 µM) was 0.104.
The result for `CCCc1nn(C)c2c(=O)[nH]c(-c3cc(S(=O)(=O)N4CCN(C)CC4)ccc3OCC)nc12` [Sildenafil] (9.999439551 µM) reads 0.101; that for `CCC1(c2ccccc2)NC(=O)N(C)C1=O` (stereo not drawn) [Mephenytoin] (10 µM), 0.0972.
On to `CC[C@]1(O)C[C@@H]2CN(CCc3c([nH]c4ccccc34)[C@@](C(=O)OC)(c3cc4c(cc3OC)N(C)[C@H]3[C@@](O)(C(=O)OC)[C@H](OC(C)=O)[C@]5(CC)C=CCN6CC[C@]43[C@@H]65)C2)C1` [Vinblastine (sulfate)] (10 µM), for which the “XPO1 fluorescence intensity change (log2)” value is 0.183.
As for `CC1(C)C[C@@H]1C(=O)N/C(=C\CCCCSC[C@H](N)C(=O)O)C(=O)O` [Cilastatin] (10 µM), the “XPO1 fluorescence intensity change (log2)” value came out at 0.0605.
The result for `CCCCC1C(=O)N(c2ccccc2)N(c2ccc(O)cc2)C1=O` (stereo not drawn) [Oxyphenbutazone] (10 µM) reads -0.0189; that for `Nc1cccc2c1CN(C1CCC(=O)NC1=O)C2=O` (stereo not drawn) [Lenalidomide] (4.1665 µM), 0.17.
The result for `CCCCN1C[C@H](O)[C@@H](O)[C@H](O)[C@H]1CO` [Miglustat (hydrochloride)] (10 µM) reads 0.122; that for `Cc1nnc(C(=O)NC(C)(C)c2nc(C(=O)NCc3ccc(F)cc3)c(O)c(=O)n2C)o1` [Raltegravir] (10 µM), 0.0579.
The result for `CO[C@H]1O[C@@H]2O[C@@]3(C)CC[C@H]4[C@H](C)CC[C@@H]([C@H]1C)[C@@]24OO3` [Artemether] (10 µM) reads -0.0933; that for `CC1=Nc2ccc(Cl)cc2S(=O)(=O)N1` [Diazoxide] (10 µM), -0.0342.
On to `CCCCN(CCCC)CC(O)c1cc(Cl)cc2c1-c1ccc(Cl)cc1/C2=C/c1ccc(Cl)cc1` (stereo not drawn) [Lumefantrine] (10 µM), for which the “XPO1 fluorescence intensity change (log2)” value was 0.0223.
The result for `COc1cccc2c1C(=O)c1c(O)c3c(c(O)c1C2=O)C[C@@](O)(C(=O)CO)C[C@@H]3O[C@H]1C[C@H](N)[C@H](O)[C@H](C)O1` [Doxorubicin] (0.09215 µM) reads 0.149; that for `O=C(c1ccc(OCCN2CCCCC2)cc1)c1c(-c2ccc(O)cc2)sc2cc(O)ccc12` [Raloxifene] (20 µM), -0.0373.
Regarding `C[C@H]1O[C@H](O[C@H]2[C@H](O)[C@@H](O)[C@@H](O[C@H]3[C@H](O)[C@@H](O)C(O)O[C@@H]3CO)O[C@@H]2CO)[C@H](O)[C@@H](O)[C@@H]1N[C@H]1C=C(CO)[C@@H](O)[C@H](O)[C@H]1O` (stereo partly drawn) [Acarbose] (10.0006 µM), the “XPO1 fluorescence intensity change (log2)” value was 0.0307.
The result for `CC1=NN(c2ccc(C)c(C)c2)C(=O)/C1=N\Nc1cccc(-c2cccc(C(=O)O)c2)c1O` [Eltrombopag] (10 µM) reads 0.169; that for `O=C(c1cc(Cc2n[nH]c(=O)c3ccccc23)ccc1F)N1CCN(C(=O)C2CC2)CC1` [Olaparib] (10 µM), 0.179; that for `CCOc1cc2ncc(C#N)c(Nc3ccc(OCc4ccccn4)c(Cl)c3)c2cc1NC(=O)/C=C/CN(C)C` [Neratinib] (10 µM), 0.0359.
The value for `CC[N+](C)(C)Cc1ccccc1Br` [Bretylium Tosylate] (17 µM) was 0.0276.
The value for `O=C1c2c(O)ccc(O)c2C(=O)c2c(NCCNCCO)ccc(NCCNCCO)c21` [Mitoxantrone] (0.1144 µM) was 0.077; that for `NN1CCOC1=O` [3-Amino-2-Oxazolidinone] (5.429755364 µM) was 0.191.
As to `OC[C@H]1O[C@@H](n2cnc3c2N=CNC[C@H]3O)C[C@@H]1O` [Pentostatin] (14.69 µM), the “XPO1 fluorescence intensity change (log2)” value came to 0.0903.
Regarding `O=C1CN(/N=C/c2ccc(-c3ccc([N+](=O)[O-])cc3)o2)C(=O)N1` [Dantrolene] (10 µM), the “XPO1 fluorescence intensity change (log2)” value is -0.0218.
The result for `CCC(C)n1ncn(-c2ccc(N3CCN(c4ccc(OCC5COC(Cn6cncn6)(c6ccc(Cl)cc6Cl)O5)cc4)CC3)cc2)c1=O` (stereo not drawn) [Itraconazole] (10 µM) reads -0.0467.

Source of the values: the supplement of paper PMC11098740.
